Some of these results come from one statement about several compounds together.
Target: T1, Eg5 kinesin motor domains (Homo sapiens, UniProt P52732)
T1 construct: The ATPase activity of Eg5 kinesin motor domains (Cytoskeleton, cat. No. EG01) can be used; purchased Cytoskeleton EG01
T1 sequence (P52732 18-359 limits assumed): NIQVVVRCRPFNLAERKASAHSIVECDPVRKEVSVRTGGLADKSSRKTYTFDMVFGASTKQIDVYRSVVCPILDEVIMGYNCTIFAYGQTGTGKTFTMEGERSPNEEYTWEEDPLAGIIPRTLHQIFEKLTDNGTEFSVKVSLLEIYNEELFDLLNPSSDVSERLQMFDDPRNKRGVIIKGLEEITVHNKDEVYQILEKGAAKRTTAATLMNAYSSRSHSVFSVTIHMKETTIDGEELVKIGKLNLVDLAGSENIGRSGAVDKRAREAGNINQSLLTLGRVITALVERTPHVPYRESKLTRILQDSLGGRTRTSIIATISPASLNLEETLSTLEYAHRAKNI
Assay: ATPase activity of Eg5 kinesin motor domains (Malachite green)
Type: biochemical
Conditions: 300 μM ATP, 30 min, room temperature

SMILES | Inhibition of Eg5 activity, −log IC50
CCOc1ccc2[nH]c3c(c2c1)C[C@@]1(C)C(=O)N(C)C(=O)N1[C@@H]3c1cccc(O)c1 (racemic) [Example 1, (3aSR,10RS)-6-Ethoxy-10-(3-hydroxy-phenyl)-2,3a-dimethyl-3a,4,9,10-tetrahydro-2,9,10a-triaza-cyclopenta[b]fluorene-1,3-dione] | compounds are all ≧6.3 mol/l
COCCOc1ccc2[nH]c3c(c2c1)C[C@@]1(C)C(=O)N(C)C(=O)N1[C@@H]3c1cccc(O)c1 (racemic) [Example 2, (3aSR,10RS)-10-(3-Hydroxy-phenyl)-6-(2-methoxy-ethoxy)-2,3a-dimethyl-3a,4,9,10-tetrahydro-2,9,10a-triaza-cyclopenta[b]fluorene-1,3-dione] | compounds are all ≧6.3 mol/l
COc1ccc2[nH]c3c(c2c1)C[C@@]1(C)C(=O)N(C)C(=O)N1[C@@H]3c1cccc(O)c1 (racemic) [Example 3, (3aSR,10RS)-10-(3-Hydroxy-phenyl)-6-methoxy-2,3a-dimethyl-3a,4,9,10-tetrahydro-2,9,10a-triaza-cyclopenta[b]fluorene-1,3-dione] | compounds are all ≧6.3 mol/l
CN1C(=O)N2[C@H](c3cccc(O)c3)c3[nH]c4ccc(Br)cc4c3C[C@@]2(C)C1=O (racemic) [Example 4, (3aSR,10RS)-6-Bromo-10-(3-hydroxy-phenyl)-2,3a-dimethyl-3a,4,9,10-tetrahydro-2,9,10a-triaza-cyclopenta[b]fluorene-1,3-dione] | compounds are all ≧6.3 mol/l
CN1C(=O)N2[C@H](c3cccc(O)c3)c3[nH]c4ccc(Cl)cc4c3C[C@@]2(C)C1=O (racemic) [Example 5, (3aSR,10RS)-6-Chloro-10-(3-hydroxy-phenyl)-2,3a-dimethyl-3a,4,9,10-tetrahydro-2,9,10a-triaza-cyclopenta[b]fluorene-1,3-dione] | compounds are all ≧6.3 mol/l
COCCOc1ccc2[nH]c3c(c2c1)C[C@@]1(C)C(=O)N(CCN(C)C)C(=O)N1[C@@H]3c1cccc(O)c1 (racemic) [Example 6, (3aSR,10RS)-2-(2-Dimethylamino-ethyl)-10-(3-hydroxy-phenyl)-6-(2-methoxy-ethoxy)-3a-methyl-3a,4,9,10-tetrahydro-2,9,10a-triaza-cyclopenta[b]fluorene-1,3-dione] | compounds are all ≧6.3 mol/l
COc1ccc2[nH]c3c(c2c1)C[C@@]1(C)C(=O)N(CCN(C)C)C(=O)N1[C@@H]3c1cccc(O)c1 (racemic) [Example 7, (3aSR,10RS)-2-(2-Dimethylamino-ethyl)-10-(3-hydroxy-phenyl)-6-methoxy-3a-methyl-3a,4,9,10-tetrahydro-2,9,10a-triaza-cyclopenta[b]fluorene-1,3-dione] | compounds are all ≧6.3 mol/l
CN(C)CCN1C(=O)N2[C@H](c3cccc(O)c3)c3[nH]c4ccc(Br)cc4c3C[C@@]2(C)C1=O (racemic) [Example 8, (3aSR,10RS)-6-Bromo-2-(2-dimethylamino-ethyl)-10-(3-hydroxy-phenyl)-3a-methyl-3a,4,9,10-tetrahydro-2,9,10a-triaza-cyclopenta[b]fluorene-1,3-dione] | compounds are all ≧6.3 mol/l
CN(C)CCN1C(=O)N2[C@H](c3cccc(O)c3)c3[nH]c4ccc(Cl)cc4c3C[C@@]2(C)C1=O (racemic) [Example 9, (3aSR,10RS)-6-Chloro-2-(2-dimethylamino-ethyl)-10-(3-hydroxy-phenyl)-3a-methyl-3a,4,9,10-tetrahydro-2,9,10a-triaza-cyclopenta[b]fluorene-1,3-dione] | compounds are all ≧6.3 mol/l
COc1ccc2[nH]c3c(c2c1)C[C@@]1(C)C(=O)N(CCN2CCOCC2)C(=O)N1[C@@H]3c1cccc(O)c1 (racemic) [Example 10, (3aSR,10RS)-10-(3-Hydroxy-phenyl)-6-methoxy-3a-methyl-2-(2-morpholin-4-yl-ethyl)-3a,4,9,10-tetrahydro-2,9,10a-triaza-cyclopenta[b]fluorene-1,3-dione] | compounds are all ≧6.3 mol/l
COc1ccc2[nH]c3c(c2c1)C[C@@]1(C)C(=O)N(CCN2CCCC2)C(=O)N1[C@@H]3c1cccc(O)c1 (racemic) [Example 11, (3aSR,10RS)-10-(3-Hydroxy-phenyl)-6-methoxy-3a-methyl-2-(2-pyrrolidin-1-yl-ethyl)-3a,4,9,10-tetrahydro-2,9,10a-triaza-cyclopenta[b]fluorene-1,3-dione] | compounds are all ≧6.3 mol/l
COc1ccc2[nH]c3c(c2c1)C[C@@]1(C)C(=O)N(CCN2CCN(C)CC2)C(=O)N1[C@@H]3c1cccc(O)c1 (racemic) [Example 12, (3aSR,10RS)-10-(3-Hydroxy-phenyl)-6-methoxy-3a-methyl-2-[2-(4-methyl-piperazin-1-yl)ethyl]-3a,4,9,10-tetrahydro-2,9,10a-triaza-cyclopenta[b]fluorene-1,3-dione] | compounds are all ≧6.3 mol/l
COc1ccc2[nH]c3c(c2c1)C[C@@]1(C)C(=O)N(CCn2ccnc2)C(=O)N1[C@@H]3c1cccc(O)c1 (racemic) [Example 13, (3aSR,10RS)-10-(3-Hydroxy-phenyl)-2-(2-imidazol-1-yl-ethyl)-6-methoxy-3a-methyl-3a,4,9,10-tetrahydro-2,9,10a-triaza-cyclopenta[b]fluorene-1,3-dione] | compounds are all ≧6.3 mol/l
COc1ccc2[nH]c3c(c2c1)C[C@@]1(C)C(=O)N(CCCCN(C)C)C(=O)N1[C@@H]3c1cccc(O)c1 (racemic) [Example 14, (3aSR,10RS)-2-(4-Dimethylamino-butyl)-10-(3-hydroxy-phenyl)-6-methoxy-3a-methyl-3a,4,9,10-tetrahydro-2,9,10a-triaza-cyclopenta[b]fluorene-1,3-dione] | compounds are all ≧6.3 mol/l
COc1ccc2[nH]c3c(c2c1)C[C@@]1(C)C(=O)N(CCCN(C)C)C(=O)N1[C@@H]3c1cccc(O)c1 (racemic) [Example 15, (3aSR,10RS)-2-(3-Dimethylamino-propyl)-10-(3-hydroxy-phenyl)-6-methoxy-3a-methyl-3a,4,9,10-tetrahydro-2,9,10a-triaza-cyclopenta[b]fluorene-1,3-dione] | compounds are all ≧6.3 mol/l
CN(C)CCCN1C(=O)N2[C@H](c3cccc(O)c3)c3[nH]c4ccc(Cl)cc4c3C[C@@]2(C)C1=O (racemic) [Example 16, (3aSR,10RS)-6-Chloro-2-(3-dimethylamino-propyl)-10-(3-hydroxy-phenyl)-3a-methyl-3a,4,9,10-tetrahydro-2,9,10a-triaza-cyclopenta[b]fluorene-1,3-dione] | compounds are all ≧6.3 mol/l
C[C@@]12Cc3c([nH]c4ccc(Cl)cc34)[C@@H](c3cccc(O)c3)N1C(=O)N(CCN1CCCC1)C2=O (racemic) [Example 17, (3aSR,10RS)-6-Chloro-10-(3-hydroxy-phenyl)-3a-methyl-2-(2-pyrrolidin-1-yl-ethyl)-3a,4,9,10-tetrahydro-2,9,10a-triaza-cyclopenta[b]fluorene-1,3-dione] | compounds are all ≧6.3 mol/l
CC[C@@]12Cc3c([nH]c4ccc(OC)cc34)[C@@H](c3cccc(O)c3)N1C(=O)N(CCN(C)C)C2=O (racemic) [Example 18, (3aSR,10RS)-2-(2-Dimethylamino-ethyl)-3a-ethyl-10-(3-hydroxy-phenyl)-6-methoxy-3a,4,9,10-tetrahydro-2,9,10a-triaza-cyclopenta[b]fluorene-1,3-dione] | compounds are all ≧6.3 mol/l
CC[C@@]12Cc3c([nH]c4ccc(OC)cc34)[C@@H](c3cccc(O)c3)N1C(=O)N(CCCN(C)C)C2=O (racemic) [Example 19, (3aSR,10RS)-2-(3-Dimethylamino-propyl)-3a-ethyl-10-(3-hydroxy-phenyl)-6-methoxy-3a,4,9,10-tetrahydro-2,9,10a-triaza-cyclopenta[b]fluorene-1,3-dione] | compounds are all ≧6.3 mol/l
COc1ccc2[nH]c3c(c2c1)C[C@@]1(C)C(=O)N(CCCn2ccnc2)C(=O)N1[C@@H]3c1cccc(O)c1 (racemic) [Example 20, (3aSR,10RS)-10-(3-Hydroxy-phenyl)-2-(3-imidazol-1-yl-propyl)-6-methoxy-3a-methyl-3a,4,9,10-tetrahydro-2,9,10a-triaza-cyclopenta[b]fluorene-1,3-dione] | compounds are all ≧6.3 mol/l
CN1C(=O)N2[C@H](c3cccc(O)c3)c3[nH]c4ccc(OCC5CC5)cc4c3C[C@@]2(C)C1=O (racemic) [Example 21, (3aSR,10RS)-6-Cyclopropylmethoxy-10-(3-hydroxy-phenyl)-2,3a-dimethyl-3a,4,9,10-tetrahydro-2,9,10a-triaza-cyclopenta[b]fluorene-1,3-dione] | compounds are all ≧6.3 mol/l
CCOc1ccc2[nH]c3c(c2c1)C[C@@]1(C)C(=O)N(CCN(C)C)C(=O)N1[C@@H]3c1cccc(O)c1 (racemic) [Example 23, (3aSR,10RS)-2-(2-Dimethylamino-ethyl)-6-ethoxy-10-(3-hydroxy-phenyl)-3a-methyl-3a,4,9,10-tetrahydro-2,9,10a-triaza-cyclopenta[b]fluorene-1,3-dione] | compounds are all ≧6.3 mol/l
COc1ccc2[nH]c3c(c2c1)C[C@@]1(C)C(=O)N(CCN)C(=O)N1[C@@H]3c1cccc(O)c1 (racemic) [Example 25, (3aSR,10RS)-2-(2-Amino-ethyl)-10-(3-hydroxy-phenyl)-6-methoxy-3a-methyl-3a,4,9,10-tetrahydro-2,9,10a-triaza-cyclopenta[b]fluorene-1,3-dione] | compounds are all ≧6.3 mol/l
